Measurements as given in the supplement of paper PMC12819154, “High-throughput peptide-centric local stability assay extends protein–ligand identification to membrane proteins, tissues and bacteria” (Nature Structural & Molecular Biology, 2025).
Some of the results follow. Most entries show no effect beyond the scatter of the controls.

The chains behind the UniProt entries cited, without tags or fusion partners. Where a name states a change or a piece, a line headed by the entry shows the natural chain unless it says otherwise.
UniProt Q64727: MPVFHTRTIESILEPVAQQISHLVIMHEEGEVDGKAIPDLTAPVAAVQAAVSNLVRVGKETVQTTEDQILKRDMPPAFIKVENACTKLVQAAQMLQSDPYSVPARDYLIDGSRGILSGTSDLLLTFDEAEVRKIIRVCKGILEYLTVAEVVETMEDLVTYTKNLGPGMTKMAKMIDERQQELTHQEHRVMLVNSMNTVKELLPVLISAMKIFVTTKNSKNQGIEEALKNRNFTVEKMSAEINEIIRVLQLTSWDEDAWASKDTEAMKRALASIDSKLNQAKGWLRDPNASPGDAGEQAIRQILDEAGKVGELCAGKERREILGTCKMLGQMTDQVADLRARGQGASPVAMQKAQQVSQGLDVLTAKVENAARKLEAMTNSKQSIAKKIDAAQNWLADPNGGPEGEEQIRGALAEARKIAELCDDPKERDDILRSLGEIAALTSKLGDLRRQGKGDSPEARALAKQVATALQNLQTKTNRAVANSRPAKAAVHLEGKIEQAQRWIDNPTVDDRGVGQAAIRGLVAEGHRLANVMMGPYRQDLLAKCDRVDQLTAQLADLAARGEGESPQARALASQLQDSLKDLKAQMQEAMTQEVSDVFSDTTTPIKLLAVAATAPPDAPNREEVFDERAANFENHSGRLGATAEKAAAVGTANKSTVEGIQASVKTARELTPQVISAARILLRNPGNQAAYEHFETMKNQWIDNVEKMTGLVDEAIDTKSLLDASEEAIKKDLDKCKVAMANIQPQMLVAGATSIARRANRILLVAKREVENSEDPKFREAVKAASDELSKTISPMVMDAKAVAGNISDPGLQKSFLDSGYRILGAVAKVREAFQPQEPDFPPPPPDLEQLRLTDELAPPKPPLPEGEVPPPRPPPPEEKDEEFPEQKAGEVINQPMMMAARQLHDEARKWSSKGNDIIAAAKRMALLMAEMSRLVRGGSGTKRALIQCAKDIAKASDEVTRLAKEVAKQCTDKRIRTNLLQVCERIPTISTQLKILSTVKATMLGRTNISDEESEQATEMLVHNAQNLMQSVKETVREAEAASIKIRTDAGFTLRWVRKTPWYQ
UniProt Q64735, whole entry: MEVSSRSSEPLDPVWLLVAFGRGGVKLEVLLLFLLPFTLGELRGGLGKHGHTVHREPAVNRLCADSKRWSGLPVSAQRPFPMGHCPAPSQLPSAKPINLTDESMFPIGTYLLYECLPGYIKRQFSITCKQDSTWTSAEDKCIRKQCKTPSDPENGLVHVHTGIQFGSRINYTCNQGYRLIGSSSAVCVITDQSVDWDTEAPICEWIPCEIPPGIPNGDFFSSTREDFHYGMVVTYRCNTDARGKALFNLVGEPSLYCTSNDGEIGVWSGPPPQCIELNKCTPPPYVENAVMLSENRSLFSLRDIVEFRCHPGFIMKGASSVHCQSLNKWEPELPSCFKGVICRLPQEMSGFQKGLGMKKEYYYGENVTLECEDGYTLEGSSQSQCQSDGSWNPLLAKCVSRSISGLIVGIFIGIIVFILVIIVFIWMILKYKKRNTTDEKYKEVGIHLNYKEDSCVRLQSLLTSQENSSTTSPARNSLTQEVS
UniProt Q61545: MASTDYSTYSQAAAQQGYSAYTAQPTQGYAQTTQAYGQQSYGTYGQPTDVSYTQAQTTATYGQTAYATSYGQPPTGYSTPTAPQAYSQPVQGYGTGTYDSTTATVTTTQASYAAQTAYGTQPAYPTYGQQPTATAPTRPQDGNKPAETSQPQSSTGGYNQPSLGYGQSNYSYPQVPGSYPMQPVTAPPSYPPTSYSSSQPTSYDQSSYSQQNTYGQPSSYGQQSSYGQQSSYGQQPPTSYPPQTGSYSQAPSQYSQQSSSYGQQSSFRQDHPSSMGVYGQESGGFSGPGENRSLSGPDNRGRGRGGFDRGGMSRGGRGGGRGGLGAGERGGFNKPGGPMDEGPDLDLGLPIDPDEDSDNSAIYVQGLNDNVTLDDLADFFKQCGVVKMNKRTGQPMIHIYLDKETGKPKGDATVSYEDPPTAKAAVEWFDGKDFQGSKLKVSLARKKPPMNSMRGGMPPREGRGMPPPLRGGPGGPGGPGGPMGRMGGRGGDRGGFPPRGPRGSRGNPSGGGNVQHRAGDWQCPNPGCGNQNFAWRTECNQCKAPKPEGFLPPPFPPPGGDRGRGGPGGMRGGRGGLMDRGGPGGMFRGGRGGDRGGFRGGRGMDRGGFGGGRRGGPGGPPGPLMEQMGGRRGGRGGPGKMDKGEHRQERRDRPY
UniProt Q60973, whole entry: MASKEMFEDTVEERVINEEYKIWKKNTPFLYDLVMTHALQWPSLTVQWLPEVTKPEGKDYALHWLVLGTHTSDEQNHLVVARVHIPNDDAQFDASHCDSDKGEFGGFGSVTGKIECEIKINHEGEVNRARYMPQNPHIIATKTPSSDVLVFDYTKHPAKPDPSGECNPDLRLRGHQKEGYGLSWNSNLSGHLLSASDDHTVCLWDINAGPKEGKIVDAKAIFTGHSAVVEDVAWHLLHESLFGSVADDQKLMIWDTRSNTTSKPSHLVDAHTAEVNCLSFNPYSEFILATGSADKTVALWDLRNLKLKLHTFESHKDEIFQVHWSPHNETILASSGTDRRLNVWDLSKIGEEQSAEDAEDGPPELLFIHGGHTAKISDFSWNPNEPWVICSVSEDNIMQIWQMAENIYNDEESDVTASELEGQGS
UniProt Q64471: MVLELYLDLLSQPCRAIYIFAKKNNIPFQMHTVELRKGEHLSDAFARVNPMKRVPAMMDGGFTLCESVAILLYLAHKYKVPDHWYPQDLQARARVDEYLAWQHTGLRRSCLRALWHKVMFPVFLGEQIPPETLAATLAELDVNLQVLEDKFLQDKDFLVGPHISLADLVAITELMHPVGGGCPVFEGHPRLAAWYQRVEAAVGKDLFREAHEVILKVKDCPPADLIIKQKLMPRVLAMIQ
UniProt Q62230: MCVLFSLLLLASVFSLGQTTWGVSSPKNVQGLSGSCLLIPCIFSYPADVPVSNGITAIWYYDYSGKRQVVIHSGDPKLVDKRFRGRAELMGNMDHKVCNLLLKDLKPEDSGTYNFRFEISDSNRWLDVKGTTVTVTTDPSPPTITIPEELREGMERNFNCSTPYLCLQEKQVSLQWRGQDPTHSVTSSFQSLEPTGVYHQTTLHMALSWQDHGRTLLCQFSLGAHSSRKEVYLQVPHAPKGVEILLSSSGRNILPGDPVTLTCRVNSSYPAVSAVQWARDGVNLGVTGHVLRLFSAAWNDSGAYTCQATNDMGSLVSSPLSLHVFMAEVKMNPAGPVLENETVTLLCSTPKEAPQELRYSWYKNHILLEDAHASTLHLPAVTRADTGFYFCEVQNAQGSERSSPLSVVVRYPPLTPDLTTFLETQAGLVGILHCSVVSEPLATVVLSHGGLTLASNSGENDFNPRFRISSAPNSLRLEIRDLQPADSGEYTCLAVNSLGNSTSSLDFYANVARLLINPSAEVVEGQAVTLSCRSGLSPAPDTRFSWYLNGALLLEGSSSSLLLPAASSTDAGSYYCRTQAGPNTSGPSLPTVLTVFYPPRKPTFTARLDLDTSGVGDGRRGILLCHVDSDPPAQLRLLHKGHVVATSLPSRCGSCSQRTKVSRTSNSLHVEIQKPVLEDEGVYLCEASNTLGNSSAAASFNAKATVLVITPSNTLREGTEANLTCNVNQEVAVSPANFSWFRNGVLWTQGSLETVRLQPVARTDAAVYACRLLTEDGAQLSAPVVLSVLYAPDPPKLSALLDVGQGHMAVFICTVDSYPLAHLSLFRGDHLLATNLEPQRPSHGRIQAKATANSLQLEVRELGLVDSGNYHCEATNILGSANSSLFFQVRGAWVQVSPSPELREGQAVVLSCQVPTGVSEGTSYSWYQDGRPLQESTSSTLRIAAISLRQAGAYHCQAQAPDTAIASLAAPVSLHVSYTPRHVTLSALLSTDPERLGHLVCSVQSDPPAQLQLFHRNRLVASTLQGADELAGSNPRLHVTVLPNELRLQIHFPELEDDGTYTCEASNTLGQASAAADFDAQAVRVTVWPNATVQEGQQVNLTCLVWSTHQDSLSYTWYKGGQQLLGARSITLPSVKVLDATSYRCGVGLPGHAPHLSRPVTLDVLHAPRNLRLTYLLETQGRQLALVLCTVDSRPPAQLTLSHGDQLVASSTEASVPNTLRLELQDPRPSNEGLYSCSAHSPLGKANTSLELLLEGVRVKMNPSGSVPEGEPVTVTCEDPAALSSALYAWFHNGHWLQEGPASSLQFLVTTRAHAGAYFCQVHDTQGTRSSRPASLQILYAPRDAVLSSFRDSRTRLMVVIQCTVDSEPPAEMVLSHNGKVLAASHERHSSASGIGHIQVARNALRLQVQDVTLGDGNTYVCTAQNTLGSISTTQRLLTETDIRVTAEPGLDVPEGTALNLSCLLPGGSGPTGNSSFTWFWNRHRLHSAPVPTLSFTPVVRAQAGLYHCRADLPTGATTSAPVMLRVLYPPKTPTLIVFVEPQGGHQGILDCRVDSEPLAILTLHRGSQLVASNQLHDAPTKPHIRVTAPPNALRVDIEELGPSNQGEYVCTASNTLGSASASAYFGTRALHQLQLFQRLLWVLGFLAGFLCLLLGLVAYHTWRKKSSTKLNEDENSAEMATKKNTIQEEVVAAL
UniProt Q62422: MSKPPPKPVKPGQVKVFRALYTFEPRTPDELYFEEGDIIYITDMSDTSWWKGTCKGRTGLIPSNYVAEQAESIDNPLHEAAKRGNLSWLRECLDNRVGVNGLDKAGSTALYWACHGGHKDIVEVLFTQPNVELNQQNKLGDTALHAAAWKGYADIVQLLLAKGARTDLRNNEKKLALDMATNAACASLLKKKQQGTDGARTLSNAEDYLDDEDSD
UniProt Q62167: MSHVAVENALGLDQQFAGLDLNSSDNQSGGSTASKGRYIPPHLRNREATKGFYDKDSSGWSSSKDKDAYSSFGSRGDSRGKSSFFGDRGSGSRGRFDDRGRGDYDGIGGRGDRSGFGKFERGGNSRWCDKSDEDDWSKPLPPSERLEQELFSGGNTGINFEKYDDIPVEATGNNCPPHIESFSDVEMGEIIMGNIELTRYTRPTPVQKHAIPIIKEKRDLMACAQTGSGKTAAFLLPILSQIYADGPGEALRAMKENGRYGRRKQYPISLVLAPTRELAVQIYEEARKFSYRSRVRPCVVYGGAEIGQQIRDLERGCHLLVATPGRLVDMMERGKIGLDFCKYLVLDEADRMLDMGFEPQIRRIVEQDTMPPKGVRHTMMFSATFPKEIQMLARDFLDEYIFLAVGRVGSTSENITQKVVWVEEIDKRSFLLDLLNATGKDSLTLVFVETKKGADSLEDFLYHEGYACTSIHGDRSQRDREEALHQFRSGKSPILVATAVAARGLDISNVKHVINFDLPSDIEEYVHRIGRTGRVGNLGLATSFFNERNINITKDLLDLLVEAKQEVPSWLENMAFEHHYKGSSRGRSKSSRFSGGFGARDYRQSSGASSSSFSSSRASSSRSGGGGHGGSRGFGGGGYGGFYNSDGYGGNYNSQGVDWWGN
UniProt Q5XG73: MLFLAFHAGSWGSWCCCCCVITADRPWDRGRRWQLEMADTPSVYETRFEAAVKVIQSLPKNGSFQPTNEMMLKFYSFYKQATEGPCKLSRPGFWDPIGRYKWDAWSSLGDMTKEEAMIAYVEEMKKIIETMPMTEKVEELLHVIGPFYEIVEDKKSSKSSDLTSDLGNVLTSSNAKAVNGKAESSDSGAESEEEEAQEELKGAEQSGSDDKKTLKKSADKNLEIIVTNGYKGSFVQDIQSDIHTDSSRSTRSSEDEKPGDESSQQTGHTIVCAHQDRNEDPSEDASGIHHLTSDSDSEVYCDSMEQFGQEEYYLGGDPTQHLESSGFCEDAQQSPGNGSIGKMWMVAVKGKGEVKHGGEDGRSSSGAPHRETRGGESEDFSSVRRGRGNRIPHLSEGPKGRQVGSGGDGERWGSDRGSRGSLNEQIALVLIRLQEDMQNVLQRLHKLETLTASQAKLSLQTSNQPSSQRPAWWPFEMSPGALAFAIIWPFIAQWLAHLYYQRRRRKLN
UniProt Q64520: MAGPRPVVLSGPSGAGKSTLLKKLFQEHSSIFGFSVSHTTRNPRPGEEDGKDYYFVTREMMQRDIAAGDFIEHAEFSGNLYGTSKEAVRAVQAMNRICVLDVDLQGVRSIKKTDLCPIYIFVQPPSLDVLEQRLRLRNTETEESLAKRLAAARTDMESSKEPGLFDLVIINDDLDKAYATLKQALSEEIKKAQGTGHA
UniProt Q61694: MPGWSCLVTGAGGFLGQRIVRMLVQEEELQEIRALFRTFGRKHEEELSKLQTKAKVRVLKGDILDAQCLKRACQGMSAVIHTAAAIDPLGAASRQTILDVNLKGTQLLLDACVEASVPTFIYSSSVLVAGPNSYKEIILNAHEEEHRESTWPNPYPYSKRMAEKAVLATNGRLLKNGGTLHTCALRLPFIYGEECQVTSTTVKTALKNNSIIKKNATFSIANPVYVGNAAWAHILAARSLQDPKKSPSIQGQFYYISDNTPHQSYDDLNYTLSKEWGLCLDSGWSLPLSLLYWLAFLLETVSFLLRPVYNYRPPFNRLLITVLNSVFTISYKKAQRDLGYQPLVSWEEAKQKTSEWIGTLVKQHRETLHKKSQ

The targets below were run with CN[C@@H]1C[C@H]2O[C@@](C)([C@@H]1OC)n1c3ccccc3c3c4c(c5c6ccccc6n2c5c31)C(=O)NC4 [staurosporine] (assay: log2 fold change of pooled soluble protein (PISA), ligand vs vehicle (log2 ratio); higher = more thermally stabilized). Details: ligand concentration: 20 uM; assay format: PISA pool 52.9/55.5/58.6 C.

Target	log2 fold change of pooled soluble protein
UniProt Q64727	-0.071
UniProt Q60649	-0.165
UniProt Q61247	0.127
UniProt Q64735	0.0446
UniProt Q61081	-0.0408
UniProt Q68FE2	0.142
UniProt Q62165	-0.00523
UniProt Q61545	0.144
UniProt Q69ZS7	0.248
UniProt Q60973	-0.497
UniProt Q61189	0.053
UniProt Q64471	-0.0522
UniProt Q61578	-0.188
UniProt Q62230	-0.0664
UniProt Q62422	0.268
UniProt Q62167	-0.0547
UniProt Q69ZR2	-0.139
UniProt Q62470	-0.0224

Quoted at random: 2 records from the list
Target	log2 fold change of pooled soluble protein
UniProt Q62167	-0.0547
UniProt Q64735	0.0446

Later entries

Target	log2 fold change of pooled soluble protein
UniProt Q62087	0.0786
UniProt Q5XG73	0.012
UniProt Q68FG3	-0.0412
UniProt Q6A065	-0.0575
UniProt Q69ZQ1	-0.0455
UniProt Q61703	-0.0187
UniProt Q64520	0.118
UniProt Q62448	-0.0419
UniProt Q60974	-0.0785
UniProt Q61941	0.0159
UniProt Q64514	0.0215
UniProt Q61694	-0.0617
UniProt Q64339	0.342
UniProt Q61838	-0.0358
UniProt Q62193	-0.0752
UniProt Q6DFX2	-0.27
UniProt Q60597	-0.0764
UniProt Q61656	-0.0169
